Data source: PubChem BioAssay AID743454 (Peter MacCallum Cancer Centre, 2014)
In all, the deposit lists about 18,000 reagents; this is a random part of them. 450 of them (2.5%) were called active. 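Single biological run; no consistent viability z cut-off exists, so the class columns, not z-scores, define the calls.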

Assay: 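Knock-downs lowering viability or raising caspase 3/7 activity in vorinostat-treated resistant cells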 (primary screen)
Cells: human HCT116-VR colon cancer cells, selected for vorinostat resistance
Reagent: siRNA pool against human genes, 40 nM siRNA pool
Timing: vorinostat for 24 h, read-out about 72 h after transfection
Conditions: vorinostat at 2.5 µM final
Detection: 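Cell viability by CellTiter-Fluor and caspase 3/7 activity by luminescence, each scaled to mock wells per plate, duplicates averaged, then robust z-scored over all plates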
Reading the numbers: viability robust z-score: higher = more viable cells than screen typical; caspase robust z-score: higher = more caspase 3/7 activity than screen typical
Active means: 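a knock-down is a hit when classed RV1 or RV2 for lowered viability, or CA1 or CA2 for caspase activation; those lethal without drug were dropped; hits were retested singly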

Target gene	viability hit class	caspase hit class	viability robust z-score	caspase robust z-score	outcome
FTO	no change	no change	1.17	0.05	inactive
REST	no change	no change	-1.5	3.49	inactive
TTC6	no change	no change	0.46	0.06	inactive
CD2	no change	no change	0.64	-0.9	inactive
NUDT2	no change	no change	-0.38	1.63	inactive
ADGRA3	no change	no change	1.17	-0.98	inactive
SBDS	no change	no change	0.45	-0.44	inactive
TMCC1	no change	no change	0.36	0.9	inactive
ABHD13	no change	no change	-0.3	0.69	inactive
RPS18	no change	no change	-4.17	-0.56	inactive
ZNF684	no change	no change	-1.56	0.93	inactive
ITPR2	no change	no change	-1.16	0.26	inactive
FOXD4L4	no change	no change	-0.24	-0.01	inactive
IRX6	no change	no change	-1.43	1.54	inactive
LTF	no change	no change	-0.82	-0.44	inactive
JOSD2	no change	no change	0.74	0.22	inactive
ULK2	no change	no change	-0.08	0.38	inactive
NR5A1	no change	no change	-0.27	1.92	inactive
TRAIP	no change	no change	-1.27	0.66	inactive
NT5C1B	no change	no change	0.05	-0.44	inactive
GNPAT	no change	no change	0.49	4.88	inactive
FYCO1	no change	no change	-1.05	0.32	inactive
ADAMTS8	no change	no change	-0.92	0.58	inactive

Just “caspase hit class”, for 2 of the entries above:
LTF	no change
JOSD2	no change
